Measurements reported in PubChem BioAssay AID1224831 (NIAID, 2016).
Here is an unselected part of about 3,500 deposited reagents. In the full data, 731 (21%) are marked active. 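Active means either lowered or raised reporter signal; the gene-median score did not drive the per-siRNA calls.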

- Purpose: 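Genes that support or restrain LPS-induced TNF-alpha reporter activity in macrophage-like cells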 (follow-up of hits)
- System: human THP-1 B5 monocytic leukaemia cells carrying a TNF promoter luciferase reporter, made macrophage-like with PMA
- Knock-down reagent: single siRNA against human genes, 50 nM
- Duration: about 68 h of knock-down, then 4 h LPS
- Treatment: LPS (Salmonella minnesota, TLR-grade) at 10 ng/ml for 4 h; PMA 5 ng/ml present during knock-down
- Measured: 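Firefly to renilla luciferase ratio of a TNF promoter reporter after 4 h LPS, scaled to plate median, turned into robust z-score, averaged over replicates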
- Reading the numbers: TNF reporter z-score: higher = stronger LPS-induced TNF reporter signal; z-score, median over gene's siRNAs: higher = stronger TNF reporter signal across the gene's siRNAs
- Active means: 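Active when the replicate mean z-score is about -1 or lower, or about 1.5 or higher; lowered and raised TNF reporter signal both count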
- Calls: active = changed TNF reporter (either direction); inactive = little change

For DIRAS3 [SID315483210], the entry reads TNF reporter z-score, replicate mean -0.21; z-score, median over gene's siRNAs -0.325; inactive. With knock-down of DIRAS3 [SID315483211], the record shows TNF reporter z-score, replicate mean -0.31; z-score, median over gene's siRNAs -0.325; inactive. After knock-down of DIRAS3 [SID315483212] the results were TNF reporter z-score, replicate mean -0.34; z-score, median over gene's siRNAs -0.325; inactive. Against DIRAS3 [SID315483213] the deposit lists TNF reporter z-score, replicate mean -1.44; z-score, median over gene's siRNAs -0.325; active. Against DIRAS3 [SID315483214], the values are TNF reporter z-score, replicate mean 3.27; z-score, median over gene's siRNAs -0.325; active. Depletion of DIRAS3 [SID315483215] resulted in: TNF reporter z-score, replicate mean -0.63; z-score, median over gene's siRNAs -0.325; inactive.

A run of entries taken from the entries so far:
DIRAS3 [SID315483213] — TNF reporter z-score, replicate mean: -1.44; z-score, median over gene's siRNAs: -0.325; activity call: active
DIRAS3 [SID315483214] — TNF reporter z-score, replicate mean: 3.27; z-score, median over gene's siRNAs: -0.325; activity call: active
DIRAS3 [SID315483215] — TNF reporter z-score, replicate mean: -0.63; z-score, median over gene's siRNAs: -0.325; activity call: inactive

Further results:
Knock-down of CAMK1 [SID315483084] resulted in: TNF reporter z-score, replicate mean 0.02; z-score, median over gene's siRNAs 0.795; inactive. Silencing of CAMK1 [SID315483085] resulted in: TNF reporter z-score, replicate mean 0.11; z-score, median over gene's siRNAs 0.795; inactive. For CAMK1 [SID315483086], the values are TNF reporter z-score, replicate mean 0.4; z-score, median over gene's siRNAs 0.795; inactive. Knock-down of CAMK1 [SID315483087] resulted in: TNF reporter z-score, replicate mean 16.4; z-score, median over gene's siRNAs 0.795; active. After knock-down of CAMK1 [SID315483088], the screen gave TNF reporter z-score, replicate mean 1.7; z-score, median over gene's siRNAs 0.795; active. For CAMK1 [SID315483089], the values are TNF reporter z-score, replicate mean 1.19; z-score, median over gene's siRNAs 0.795; inactive.

Against DMRTC1 [SID315486225] the deposit lists TNF reporter z-score, replicate mean -0.13; z-score, median over gene's siRNAs -0.36; inactive. After knock-down of DMRTC1 [SID315486226] the results were TNF reporter z-score, replicate mean -0.63; z-score, median over gene's siRNAs -0.36; inactive. Silencing of DMRTC1 [SID315486227] resulted in: TNF reporter z-score, replicate mean -0.53; z-score, median over gene's siRNAs -0.36; inactive. DMRTC1 [SID315486228] showed TNF reporter z-score, replicate mean -0.19; z-score, median over gene's siRNAs -0.36; inactive. For DMRTC1 [SID315486229], the values are TNF reporter z-score, replicate mean 2.82; z-score, median over gene's siRNAs -0.36; active. Against DMRTC1 [SID315486230], the entry reads TNF reporter z-score, replicate mean -0.76; z-score, median over gene's siRNAs -0.36; inactive.
